Drawing on PubChem BioAssay AID1347423 (Functional Genomics Laboratory (NCATS/FGL), 2020), this text covers z-score for 66 sequences.

The whole screen tested about 52,000 sequences, of which about 210 (0.4%) were called active.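 Rule for the calls: active = gene whose silencing raises cell survival under the drug, median off-target-corrected z-score across its silencing RNAs 2 or more; inactive = the rest.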 The list shows a part of the results.

A short description of this assay: Resistance to Poly (ADP-Ribose) Polymerase inhibitor: Gene Identification via Genome-wide siRNA Screen. The following applies: mouse BRCA2 R2336H ES cells, olaparib, CellTiter-Glo viability; stronger effect = higher value. The essentials: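 Mouse BRCA2 R2336H ES cells were reverse-transfected with siRNA (20 nM final), treated at 48 h with 500 nM olaparib, and read by CellTiter-Glo after 72 h. Scores: MAD-based z per siRNA, median per gene, seed off-target correction.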
Consider GGCAACAGUGCAUUCAAGUTT against Nptx2, for which the z-score is inactive: -0.0161. In the case of CGCUUUCUAUACCAGAAGUTT against Lbx1h it was inactive: 1.22. In the case of “GGCUCAAGAAACUUAAGGATT against 4933411G06Rik”, the z-score was inactive: 0.389.

For the sequence GGCUCUAAGCUAAAUAAAGTT against Kbtbd4, the z-score was inactive: 0.458. For GGAAAGUAGUUGUUUUGAUTT against Rpa1, the z-score was inactive: -3.32.

As to “GGAGACAUGGACUCCUAUATT against 4933425L06Rik”, the z-score was inactive: -2.78. Regarding GGGUUUGAGGCCUUCUAUGTT against Masp2, the z-score is inactive: -2.13. Regarding GGAAUAUUGUCUUGAAUGATT against Tnfsf6, the z-score is inactive: 0.501. The value for GGAGUUGCCUCUGAAGACCTT against BC020535 was inactive: -0.0385; that for GGAGAUAAAGAGGAACAUUTT against AI504432 was inactive: -2.03; that for GGUCAAGGAAAAAACACUUTT against Nfs1 was inactive: -1.78.

GGAAGCAGAAGCUAAAGUGTT against Ubap1: the z-score was inactive: -0.522. Turning to GGGAGUAUGGAAAACUGCATT against Bin3, the z-score is inactive: 0.489. For “GGCUCCAACUGCUUUCAUCTT against 6330408A02Rik”, the z-score is inactive: -0.145.

Consider “GCUGGCUAGAAUCUUACCCTT against 0610008A10Rik”, for which the z-score is inactive: -0.258. In the case of GGAGUAGCUGAAUCUGAAGTT against Atp5e it was inactive: -2.47. On to GGAUAUCUCGGAAAUAGAGTT against Tjp2, for which the z-score is inactive: 0.451. The value for GCCAGCGUACUCUUUUUAUTT against Ocln was inactive: 0.932; that for GGGACAUAUCUGAAGCAAGTT against Rps26 was inactive: -3.07; that for “GGAAAUUCUUUGUGAGUUUTT against 2810406C15Rik” was inactive: 0.313.

As for GGUUUACAGUAAUUACCAATT against Tex12, the z-score is inactive: -0.837. In the case of GGUUGCUCUUCUUAAGGAGTT against Scye1 it was inactive: -1.32; in that of GGAAAAUCUUGACUUCAUCTT against BC018472, inactive: 0.221. Consider GGAGAGAGGGAAAAAAGAATT against Sox4, for which the z-score was inactive: -0.497. The value for GCCAGCCUAAAAAAGAUACTT against Eef1g was inactive: 0.801. With “GGAGAUAGCAAACCUUAAGTT against C130098D09”, the z-score is inactive: -1.78. The value for “GGGUGAGAGGAAACAGAAATT against 2810012L14Rik” was inactive: 1.03; that for CAGGCAAAAUAUCGAACAATT against Pstpip1 was inactive: 0.129.

In the case of CGUUAUGCGGUUUUUCCAUTT against Ndufa6, the z-score was inactive: -0.243. With “AGAAGAGUUACCACUAUGUTT against D14Ertd668e”, the z-score is inactive: -0.147. For the sequence GGCUCGCCUGAGAAAGUCUTT against Nudt7, the z-score was inactive: -0.88. With GGACCAGCACCAUUUCCUATT against Tce4, the z-score is inactive: -0.603. In the case of GGAUGAUGACAUCUUCAACTT against B4galt2 it was inactive: -0.101; in that of CCAAUUCCUGGGUGCACACTT against Olfr309, inactive: 1.26. In the case of GGCACCAGAUGUUUGUAGCTT against BC055107 it was inactive: 1.78; in that of “CCUAAUAAGCUUUAAAGGATT against A530065E19Rik”, inactive: 0.307; in that of CCUACUAAAGGUGAUCUGATT against BB128963, inactive: -0.194. For the sequence GCUGAUUUCAUUGCAUCCGTT against Olfr483, the z-score was inactive: 2.01. On to GCCGAAGUGUUCUACGAUGTT against BC024814, for which the z-score was inactive: 0.331. Take CGUGUACUCUUCUUGUACATT against Ranbp17: the z-score was inactive: 0.202. In the case of GGUGUAUAUCAACAUCAGUTT against Pps it was inactive: 0.593.

On to GCUUAAGUUAUGGAUAGCATT against Pex11b, for which the z-score is inactive: -1.1. “GGAAUACUCCAGUAUCUCCTT against 9130401M01Rik”: the z-score is inactive: -0.0555. In the case of GGUGACUUUGAAAAAGCCATT against AW049829 it was inactive: 0.573; in that of GCUCAUGCAGAAAUGUUUUTT against BC021438, inactive: -0.896. In the case of GGUUCAUCUGAAAACAGGUTT against Osgepl1 it was inactive: -0.509.

Regarding CCAAUAGUUGUGGACAUGATT against Crisp1, the z-score was inactive: 0.606. In the case of CCUUGAAUCAAUUGAUAGUTT against Lyplal1 it was inactive: -0.191. Regarding GGAAGAGUUAGCUUAGUAUTT against Ypel1, the z-score was inactive: -0.111.

Consider GGACAAGGAUAGUAGUAAGTT against Adprt1, for which the z-score is active: 3.83. In the case of GGAAAGGACAAAAGAAAGATT against Irx3 it was inactive: -0.688. As to GCAGUUUGACAACUUAAACTT against Mtus1, the z-score was inactive: 0.96. With “GCCUUUAGUUGGUUUAGUATT against 6030490I01Rik”, the z-score is inactive: 2.86. GGAAACACAGCAAUAGAUUTT against Cplx1: the z-score was inactive: 0.751. In the case of GCCUCCUACUGGUUCCAAATT against Commd7, the z-score is inactive: -1.22. For the sequence GGCAGAUCAGAAUUGAAUUTT against Fgd6, the z-score was inactive: -0.0476. Consider GGAAAACAAGACUUCAAUCTT against Gypa, for which the z-score was inactive: -0.216. In the case of “GCAGGCAACUCGAAUGAGATT against 2610024A01Rik” it was inactive: -1.77; in that of GGAGUUGAUAAUAUGGUGGTT against Uck1, inactive: 0.421. In the case of “GGAGCAAGAGUCUAAAUGATT against 1700021K19Rik” it was inactive: -0.974.

As for “GCCUAACAUUAACAUGUAATT against 1500001A10Rik”, the z-score was inactive: 0.2. The value for GGCCAGUGUGUGGUCUAAGTT against Cd1d2 was inactive: -0.9. Take GGAAAGGAUAUUAUUGUUCTT against Olfr907: the z-score is inactive: 0.474. The value for CCGAAAGAACACAAUCUAUTT against Ifi16 was inactive: -0.1; that for GGCUAUGAUGACUUCAACUTT against Gnb3 was inactive: 1.38; that for GUUUUGUUUUUCCUCCAGUTT against Bcl9l was inactive: 0.044.
